Source: the supplement of paper PMC4604168 (melanoma cell lines)
The other results are listed elsewhere or left out. Repeats are few or missing, and single values can be far off.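 Cells were imaged in 1,536-well plates, and nuclei stained with an antibody against cleaved PARP were counted against all DNA-stained nuclei to give the apoptosis fraction. Screening doses were chosen to leave most cells alive, and resting and induced cleaved-PARP levels differ strongly between cell lines.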

Tests used:
Assay in all cases: cleaved PARP positive nuclei fraction relative to DMSO control; melanoma cells; higher = more apoptosis
Settings in all cases: library dose: low library concentration; 72 h
[1] = tested on: WM115
[2] = tested on: WM1716
[3] = tested on: WM1745
[4] = tested on: WM3526
[5] = tested on: WM3619
[6] = tested on: WM451Lu

| SMILES | cleaved PARP positive nuclei fraction [1] | cleaved PARP positive nuclei fraction [2] | cleaved PARP positive nuclei fraction [3] | cleaved PARP positive nuclei fraction [4] | cleaved PARP positive nuclei fraction [5] | cleaved PARP positive nuclei fraction [6] |
| --- | --- | --- | --- | --- | --- | --- |
| OCc1c[nH]c2ccccc12 [Indole-3-carbinol] + COc1cc2c(Oc3ccc4[nH]c(C)cc4c3F)ncnc2cc1OCCCN1CCCC1 [cediranib] (first compound 0.8 µM, partner dose 0.4 µM) | 146% | 40.1% | 108% | 55.7% | 91.2% | 78.2% |
| CC1(C)NC(=O)N(c2ccc([N+](=O)[O-])c(C(F)(F)F)c2)C1=O [nilutamide] + CO[C@@H]1[C@H](N(C)C(=O)c2ccccc2)C[C@H]2O[C@]1(C)n1c3ccccc3c3c4c(c5c6ccccc6n2c5c31)C(=O)NC4 [Midostaurin] (first compound 1 µM, partner dose 0.08 µM) | 53.6% | 41.9% | 748% | 55.1% | 89.8% | 49.7% |
| Nc1cccc2c1CN(C1CCC(=O)NC1=O)C2=O (stereo not given) [lenalidomide] + O=C1NC(=O)/C(=C/c2ccc(-c3ccc(F)cc3O)o2)S1 [AS252424] (first compound 1 µM, partner dose 1 µM) | 297% | 96% | 103% | 68.9% | 72.3% | 79.7% |
| COc1cc(Nc2ncc(F)c(Nc3ccc4c(n3)NC(=O)C(C)(C)O4)n2)cc(OC)c1OC [Tamatinib] + CN(NC(=O)CC(=O)NN(C)C(=S)c1ccccc1)C(=S)c1ccccc1 [STA4783] (first compound 0.4 µM, partner dose 0.006 µM) | 185% | 218% | 230% | 58.5% | 185% | 77.4% |
| COc1cc(Nc2ncc(F)c(Nc3ccc4c(n3)NC(=O)C(C)(C)O4)n2)cc(OC)c1OC [Tamatinib] + O=C(Nc1ccccc1)c1cc([N+](=O)[O-])ccc1Cl [GW9662] (first compound 0.4 µM, partner dose 2 µM) | 178% | 191% | 185% | 353% | 217% | 55.9% |
| CO[C@@H]1[C@H](N(C)C(=O)c2ccccc2)C[C@H]2O[C@]1(C)n1c3ccccc3c3c4c(c5c6ccccc6n2c5c31)C(=O)NC4 [Midostaurin] + COc1ccc(COc2ccc(Cc3cnc(N)nc3N)cc2OC)cc1 [GW2580] (first compound 0.08 µM, partner dose 1 µM) | 153% | 228% | 110% | 71.6% | 103% | 66.9% |
| O=C(CCCCCCC(=O)Nc1ccccc1)NO [vorinostat] + c1cc(-c2cnn3cc(-c4ccc(OCCN5CCCCC5)cc4)cnc23)ccn1 [Dorsomorphin] (first compound 0.08 µM, partner dose 0.4 µM) | 103% | 109% | 97.1% | 81.4% | 91.2% | 135% |
| C=CCNC1=C2C[C@@H](C)C[C@H](OC)[C@H](O)[C@@H](C)/C=C(\C)[C@H](OC(N)=O)[C@@H](OC)/C=C\C=C(/C)C(=O)NC(=CC1=O)C2=O [Tanespimycin] + CC(=O)c1c(C)c2cnc(Nc3ccc(N4CCNCC4)cn3)nc2n(C2CCCC2)c1=O [palbociclib] (first compound 0.002 µM, partner dose 0.04 µM) | 55.8% | 212% | 126% | 69.6% | 147% | 187% |
| C#Cc1cccc(Nc2ncnc3cc(OCCOC)c(OCCOC)cc23)c1 [erlotinib] + O=C(O)c1ccc(-c2c[nH]c3ncc(-c4ccccc4)cc23)cc1C1CCCC1 [GSK650394] (first compound 0.8 µM, partner dose 0.16 µM) | 87.9% | 180% | 120% | 187% | 101% | 93.1% |
| CC(=O)c1c(C)c2cnc(Nc3ccc(N4CCNCC4)cn3)nc2n(C2CCCC2)c1=O [palbociclib] + CN(C)S(=O)(=O)c1ccc2c(c1)/C(=C/c1cc3c([nH]1)CCCC3)C(=O)N2 [SU6656] (first compound 0.04 µM, partner dose 0.4 µM) | 92.8% | 49.1% | 112% | 88.9% | 115% | 102% |
| CC1(C)NC(=O)N(c2ccc([N+](=O)[O-])c(C(F)(F)F)c2)C1=O [nilutamide] + Cn1cc(/C=C2\C(=O)Nc3cccnc32)c2ccccc21 [GW441756] (first compound 1 µM, partner dose 0.4 µM) | 137% | 95.8% | 103% | 72.7% | 82.5% | 27.8% |
| Cn1c(Nc2ccc(C(F)(F)F)cc2)nc2cc(Oc3ccnc(-c4ncc(C(F)(F)F)[nH]4)c3)ccc21 + Cc1cc([N+](=O)[O-])ccc1NS(=O)(=O)c1cc(Cl)ccc1Cl [FH535] (first compound 0.08 µM, partner dose 1 µM) | 1910% | 290% | 127% | 161% | 218% | 308% |
| C[C@@H]1CCN(C(=O)CC#N)C[C@@H]1N(C)c1ncnc2[nH]ccc12 + Cn1cc(/C=C2\C(=O)Nc3cccnc32)c2ccccc21 [GW441756] (first compound 1 µM, partner dose 0.4 µM) | 203% | 28% | 110% | 102% | 79.8% | 105% |
| C=CCNC1=C2C[C@@H](C)C[C@H](OC)[C@H](O)[C@@H](C)/C=C(\C)[C@H](OC(N)=O)[C@@H](OC)/C=C\C=C(/C)C(=O)NC(=CC1=O)C2=O [Tanespimycin] + Cn1cncc1[C@@](N)(c1ccc(Cl)cc1)c1ccc2c(c1)c(-c1cccc(Cl)c1)cc(=O)n2C [tipifarnib] (first compound 0.002 µM, partner dose 0.01 µM) | 274% | 121% | 106% | 65.6% | 101% | 128% |
| Cn1cncc1[C@@](N)(c1ccc(Cl)cc1)c1ccc2c(c1)c(-c1cccc(Cl)c1)cc(=O)n2C [tipifarnib] + CCCCCCCCCCCC1=C(O)C(=O)C=C(O)C1=O [Embelin] (first compound 0.01 µM, partner dose 1.2 µM) | 166% | 15.6% | 95.5% | 80.2% | 74.7% | 124% |
| COCC[n+]1c2c(n(Cc3cnccn3)c1C)C(=O)c1ccccc1C2=O + O=c1cc(-c2cccc3c2Sc2ccccc2S3)oc(N2CCOCC2)c1 [KU55933] (first compound 0.0004 µM, partner dose 1 µM) | 49.1% | 100% | 114% | 76.9% | 83.3% | 27.2% |
| C=CCNC1=C2C[C@@H](C)C[C@H](OC)[C@H](O)[C@@H](C)/C=C(\C)[C@H](OC(N)=O)[C@@H](OC)/C=C\C=C(/C)C(=O)NC(=CC1=O)C2=O [Tanespimycin] + CCCCCCCCCCCC1=C(O)C(=O)C=C(O)C1=O [Embelin] (first compound 0.002 µM, partner dose 1.2 µM) | 75.2% | 73.2% | 85.6% | 198% | 83.4% | 1230% |
| Cc1nc(Nc2ncc(C(=O)Nc3c(C)cccc3Cl)s2)cc(N2CCN(CCO)CC2)n1 [dasatanib] + O=C(Nc1cccc(Cl)c1)Nc1ncc(CCNc2ncnc3ccsc23)s1 [SNS314] (first compound 0.004 µM, partner dose 0.0008 µM) | 123% | 280% | 148% | 62.2% | 102% | 103% |
| OCCn1cc(-c2cnc3nnn(Cc4ccc5ncccc5c4)c3n2)cn1 + Cn1cc(/C=C2\C(=O)Nc3cccnc32)c2ccccc21 [GW441756] (first compound 1 µM, partner dose 0.4 µM) | 91.2% | 91.3% | 174% | 181% | 75.5% | 26.4% |
| Cc1cc(N2CCOCC2)cc2[nH]c(-c3c(NC[C@@H](O)c4cccc(Cl)c4)cc[nH]c3=O)nc12 + O=C(Nc1cccc(Cl)c1)Nc1ncc(CCNc2ncnc3ccsc23)s1 [SNS314] (first compound 0.2 µM, partner dose 0.0008 µM) | 392% | 93.6% | 135% | 83.2% | 92.9% | 87.9% |
| COCC[n+]1c2c(n(Cc3cnccn3)c1C)C(=O)c1ccccc1C2=O + CN(C)S(=O)(=O)c1ccc2c(c1)/C(=C/c1cc3c([nH]1)CCCC3)C(=O)N2 [SU6656] (first compound 0.0004 µM, partner dose 0.4 µM) | 158% | 191% | 97.7% | 52.6% | 96.9% | 320% |
| Nc1cccc2c1CN(C1CCC(=O)NC1=O)C2=O (stereo not given) [lenalidomide] + COc1ccc2c(c1)CCC1C2CCC2(C)C(NCCCCCCN3C(=O)C=CC3=O)CCC12 [U73122] (first compound 1 µM, partner dose 0.4 µM) | 116% | 148% | 114% | 245% | 104% | 55.5% |
| OCc1c[nH]c2ccccc12 [Indole-3-carbinol] + C#Cc1cccc(Nc2ncnc3cc(OCCOC)c(OCCOC)cc23)c1 [erlotinib] (first compound 0.8 µM, partner dose 0.8 µM) | 169% | 40.4% | 110% | 45.6% | 85.3% | 89.3% |
| C[C@]1(c2nc3c(C(N)=O)cccc3[nH]2)CCCN1 [Veliparib] + NC(=O)Nc1cc(-c2cccc(F)c2)sc1C(=O)N[C@H]1CCCNC1 [AZD7762] (first compound 1.4 µM, partner dose 0.02 µM) | 59.5% | 151% | 89.5% | 70.5% | 244% | 123% |
| C=CCn1c(=O)c2cnc(Nc3ccc(N4CCN(C)CC4)cc3)nc2n1-c1cccc(C(C)(C)O)n1 + Cc1cc(N2CCOCC2)cc2[nH]c(-c3c(NC[C@@H](O)c4cccc(Cl)c4)cc[nH]c3=O)nc12 [BMS536924] (first compound 0.02 µM, partner dose 0.2 µM) | 91.5% | 72.7% | 145% | 66.3% | 138% | 55% |

As a working copy, some entries already given:

| SMILES | cleaved PARP positive nuclei fraction [1] | cleaved PARP positive nuclei fraction [2] | cleaved PARP positive nuclei fraction [3] | cleaved PARP positive nuclei fraction [4] | cleaved PARP positive nuclei fraction [5] | cleaved PARP positive nuclei fraction [6] |
| --- | --- | --- | --- | --- | --- | --- |
| C[C@@H]1CCN(C(=O)CC#N)C[C@@H]1N(C)c1ncnc2[nH]ccc12 + Cn1cc(/C=C2\C(=O)Nc3cccnc32)c2ccccc21 [GW441756] (first compound 1 µM, partner dose 0.4 µM) | 203% | 28% | 110% | 102% | 79.8% | 105% |
| C=CCNC1=C2C[C@@H](C)C[C@H](OC)[C@H](O)[C@@H](C)/C=C(\C)[C@H](OC(N)=O)[C@@H](OC)/C=C\C=C(/C)C(=O)NC(=CC1=O)C2=O [Tanespimycin] + Cn1cncc1[C@@](N)(c1ccc(Cl)cc1)c1ccc2c(c1)c(-c1cccc(Cl)c1)cc(=O)n2C [tipifarnib] (first compound 0.002 µM, partner dose 0.01 µM) | 274% | 121% | 106% | 65.6% | 101% | 128% |
